From the supplement of paper PMC12823440, “Inhibitors supercharge kinase turnover through native proteolytic circuits” (Nature, 2025)
Structures can show the parent of a compound that is named as a salt. Some of the results follow. The calls rarely recur for the same compound in another form.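 Kinases, fused to nanoluciferase, were expressed in K562 cells; luminescence was measured every 4 h from 2 to 18 h as percent of control (DMSO = 100%, positive control = 0%). A time point is decreased if signal falls significantly (2 sigma). Hits were called by the authors by a rule that is not shown; the count of time points alone does not decide it.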

By UniProt entry, the sequences of proteins in these tests, tags left out. Where a name states a change or a piece, a line headed by the entry shows the natural chain unless it says otherwise.
UniProt Q06187: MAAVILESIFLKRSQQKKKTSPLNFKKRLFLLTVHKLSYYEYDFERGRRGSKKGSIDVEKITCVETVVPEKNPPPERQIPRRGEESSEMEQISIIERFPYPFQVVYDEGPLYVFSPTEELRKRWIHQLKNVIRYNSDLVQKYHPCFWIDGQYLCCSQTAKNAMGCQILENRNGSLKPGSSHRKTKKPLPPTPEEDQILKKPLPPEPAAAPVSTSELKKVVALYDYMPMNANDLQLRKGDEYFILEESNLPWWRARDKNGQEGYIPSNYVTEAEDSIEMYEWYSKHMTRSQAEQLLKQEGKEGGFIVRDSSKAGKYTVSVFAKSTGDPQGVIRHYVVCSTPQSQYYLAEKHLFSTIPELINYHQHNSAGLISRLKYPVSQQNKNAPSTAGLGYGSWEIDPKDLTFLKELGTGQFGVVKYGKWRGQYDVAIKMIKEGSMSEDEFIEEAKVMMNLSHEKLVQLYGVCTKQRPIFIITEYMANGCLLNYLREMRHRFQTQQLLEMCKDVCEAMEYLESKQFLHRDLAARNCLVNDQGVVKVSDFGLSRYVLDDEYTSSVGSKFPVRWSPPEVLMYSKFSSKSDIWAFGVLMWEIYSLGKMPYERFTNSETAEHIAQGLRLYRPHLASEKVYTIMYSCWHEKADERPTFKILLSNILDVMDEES

molecular target: BTK (UniProt Q06187); assay: kinase-Nluc reporter destabilization hit call (1 = scored as downregulated) (binary); higher = compound decreases kinase abundance; settings: K562; 2-18 h

kinase-Nluc reporter destabilization hit call, inactive:
COc1ccc(C(=C2C(=O)Nc3ccccc32)c2ccc(OC)cc2)cc1 (10 µM) 0
CN1CCN(c2ccc(C(=O)Nc3cc(-c4cccc(NS(=O)(=O)c5ccccc5)c4)[nH]n3)cc2)CC1 [BPR1J-097 Hydrochloride] (2.5 µM) 0
C=CC(=O)Nc1cc2c(Nc3ccc(OCc4ccccn4)c(Cl)c3)ncnc2cc1OCCN1CCOCC1 (10 µM) 0
Cc1c(NC(=O)OC[C@@H]2COCCN2)cn2ncnc(Nc3ccc4c(cnn4Cc4cccc(F)c4)c3)c12 (10 µM) 0
CNc1nc(Nc2cnn(C3CCN(C4COC4)CC3F)c2Cl)ncc1C(F)(F)F (stereo unspecified) (10 µM) 0
O=C(NCCO)c1ccc2c(c1)nc(Nc1cccc(Cl)c1)c1ccncc12 [CK2 inhibitor 2] (10 µM) 0
N#CC(c1ccnc(NCCc2cccnc2)n1)c1nc2ccccc2s1 (stereo unspecified) (10 µM) 0
CCN(CC)S(=O)(=O)c1ccc(OC)c(N2CCN(C(=O)c3ccc(F)cc3C(F)(F)F)CC2)c1 (10 µM) 0
CO[C@H]1C[C@@H]2CC[C@@H](C)[C@@](O)(O2)C(=O)C(=O)N2CCCC[C@H]2C(=O)O[C@H]([C@H](C)C[C@@H]2CC[C@@H](O)[C@H](OC)C2)CC(=O)[C@H](C)/C=C(\C)[C@@H](O)[C@@H](OC)C(=O)[C@H](C)C[C@H](C)/C=C/C=C/C=C/1C [Rapamycin] (10 µM) 0
CN(C)CCN(Cc1ccc(Cl)cc1)c1ccccn1 [Chloropyramine hydrochloride] (10 µM) 0
O=C(Nc1ccc(F)cc1F)[C@H](NC(=S)Nc1cc(C(F)(F)F)cc(C(F)(F)F)c1)c1ccccc1 (2.5 µM) 0
Cc1ccc(Nc2cc(-c3cccc(N4C(=O)c5ccccc5C4=O)c3)ncn2)cc1NS(C)(=O)=O (10 µM) 0
CC(C)(C)c1ccc(S(=O)(=O)Nc2ccc(-n3ccnc3)cc2)cc1 (10 µM) 0
CCc1cc(O)c(F)cc1-c1ccc2c(-c3nc4c([nH]3)CN(C3CCN(C)CC3)CC4)n[nH]c2c1 [JAK-IN-5 (hydrochloride)] (2 µM) 0
CC1=C2C(=O)O[C@@H](c3ccoc3)[C@]2(C)CCC1 [Fraxinellone] (10 µM) 0
COc1cc(C(N)=O)nc(-c2cccc(C#C[C@]3(O)CCN(C)C3=O)c2)c1 (10 µM) 0
COc1ncc(-c2nc(N3CCOCC3)nc3c(CN4CCC(C(C)(C)O)CC4)cc(F)cc23)cc1NS(C)(=O)=O [Linperlisib] (10 µM) 0
Fc1ccc(-c2nc(-c3ccccc3F)[nH]c2-c2ccncc2)cc1 (2.5 µM) 0
CC(C)=CC[C@H](O)C1=CC(=O)c2c(O)ccc(O)c2C1=O [(-)-Alkannin] (2.5 µM) 0
CC(C)c1cnc(-c2cc(Cl)ccc2F)cc1Nc1ccncc1C(=O)NC(CO)CO (2.5 µM) 0
Cn1cnc(-c2cc3nccc(Oc4ccc(NC(=S)NC(=O)Cc5ccccc5)cc4F)c3s2)c1 [MGCD-265 analog] (10 µM) 0
COC1(c2sc3c(N4CCOCC4)nc(-c4cnc(N)nc4)nc3c2C)COC1 (2.5 µM) 0
Cc1cc(NC(=O)c2cccc(NC(=O)/C=C/CN(C)C)c2)ccc1Nc1nccc(-c2cccnc2)n1 (10 µM) 0
O=C(/C=C/c1ccc(O)c(O)c1)OC1CC(OC(=O)/C=C/c2ccc(O)c(O)c2)(C(=O)O)CC(O)C1O (stereo unspecified) [1,3-Dicaffeoylquinic acid] (10 µM) 0
COc1ccc2c(c1O)OC(C)(C)c1c-2ccc2c1C(=O)N(c1ccc(C(=O)c3ccccc3)cc1)C2=O [Ampkinone] (10 µM) 0
CNC(=O)Nc1ccc(-c2cc(-c3ccnc(Nc4ccc(C)c(S(=O)(=O)N(C)C)c4)n3)ccn2)cc1 [hSMG-1 inhibitor 11e] (2.5 µM) 0

2 compounds drawn at random from the list so far, as already listed:
kinase-Nluc reporter destabilization hit call, inactive:
CC(C)(C)c1ccc(S(=O)(=O)Nc2ccc(-n3ccnc3)cc2)cc1 (10 µM) 0
O=C(NCCO)c1ccc2c(c1)nc(Nc1cccc(Cl)c1)c1ccncc12 [CK2 inhibitor 2] (10 µM) 0
